Among the data in paper PMC4337420 are binding values, retold here.

No constants are given. Whether binding was seen depends on the method and setting. In cells and extracts the contact can be indirect. A result given as binding can be weak or reduced; the word gives no strength. Tags and fused reporters may be left off the sequences shown.

This assay deals with GST-tagged FoxO fragment: 35 amino acid Usp binding region (Drosophila melanogaster). Nature of the assay: pull-down; GST-pulldown in vitro: GST-tagged FoxO (full length, fragments or point mutants) purified on Glutathione Sepharose 4B as bait; Flag-tagged Usp or EcR detected with anti-Flag M2; source of the Flag-tagged proteins not told.

B1: Flag-tagged Ultraspiracle (Usp), full length (protein, UniProt P20153 1-508)
chain: MDNCDQDASFRLSHIKEEVKPDISQLNDSNNSSFSPKAESPVPFMQAMSMVHVLPGSNSASSNNNSAGDAQMAQAPNSAGGSAAAAVQQQYPPNHPLSGSKHLCSICGDRASGKHYGVYSCEGCKGFFKRTVRKDLTYACRENRNCIIDKRQRNRCQYCRYQKCLTCGMKREAVQEERQRGARNAAGRLSASGGGSSGPGSVGGSSSQGGGGGGGVSGGMGSGNGSDDFMTNSVSRDFSIERIIEAEQRAETQCGDRALTFLRVGPYSTVQPDYKGAVSALCQVVNKQLFQMVEYARMMPHFAQVPLDDQVILLKAAWIELLIANVAWCSIVSLDDGGAGGGGGGLGHDGSFERRSPGLQPQQLFLNQSFSYHRNSAIKAGVSAIFDRILSELSVKMKRLNLDRRELSCLKAIILYNPDIRGIKSRAEIEMCREKVYACLDEHCRLEHPGDDGRFAQLLLRLPALRSISLKCQDHLFLFRITSDRPLEELFLEQLEAPPPPGLAMKLE
Regarding B1, the binding result is recorded as “binds”.
